We go through 1 substance from paper PMC9409353.

Sequences of proteins named here, by UniProt entry; tags and fusion partners are left off. A change or cut given only in a name is not applied to a line headed by its entry.
UniProt G3XKQ9: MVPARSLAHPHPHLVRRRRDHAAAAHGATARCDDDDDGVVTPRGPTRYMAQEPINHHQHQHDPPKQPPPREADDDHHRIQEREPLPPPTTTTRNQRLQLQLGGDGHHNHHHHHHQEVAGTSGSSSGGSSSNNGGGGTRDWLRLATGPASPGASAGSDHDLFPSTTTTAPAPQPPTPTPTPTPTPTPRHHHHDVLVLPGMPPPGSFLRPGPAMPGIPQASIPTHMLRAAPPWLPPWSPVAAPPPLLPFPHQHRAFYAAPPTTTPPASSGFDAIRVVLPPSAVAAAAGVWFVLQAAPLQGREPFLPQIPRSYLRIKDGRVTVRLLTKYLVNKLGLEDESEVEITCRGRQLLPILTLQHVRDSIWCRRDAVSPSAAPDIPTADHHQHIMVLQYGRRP
UniProt Q8H3Q1: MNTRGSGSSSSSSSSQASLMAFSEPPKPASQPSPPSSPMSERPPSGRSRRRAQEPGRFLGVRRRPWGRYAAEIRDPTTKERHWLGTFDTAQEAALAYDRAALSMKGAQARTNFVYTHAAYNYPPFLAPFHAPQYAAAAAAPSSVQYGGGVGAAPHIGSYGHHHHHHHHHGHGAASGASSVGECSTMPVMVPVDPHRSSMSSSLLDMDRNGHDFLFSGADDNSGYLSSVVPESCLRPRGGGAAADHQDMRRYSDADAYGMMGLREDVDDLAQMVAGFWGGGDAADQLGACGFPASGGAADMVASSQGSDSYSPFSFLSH

The experiment concerns the target GST-LAX2 (rice (Oryza sativa L.)) (UniProt G3XKQ9). The experiment in a line: pull-down; purified recombinant proteins incubated 2 h at 4 °C in 50 mM Tris-HCl pH 7.5, 5% glycerol, 1 mM EDTA, 1 mM DTT, 1 mM PMSF, 0.01% Nonidet P-40, 150 mM KCl; MBP-PAA7 pulled down by GST-LAX2 (legend; methods say His-beads), immunoblot with anti-MBP; both purified.

No constants are given. Whether binding was seen depends on the method and setting. Binding can be weak; no strength is given.

As for MBP-PAA7 (from UniProt Q8H3Q1 1-318), the binding result is “binds”.
